Paper PMC10163288
Positions count from the first letter of the chain named. Some of the results follow.

B1: il2ra_site1_3nfp_normal_mot_HHH_b1_01231_af2_000000170_0001_1_16_H_._HHH_b1_07288_0001_0000400014_0000001_0 (protein)
chain: SSSSTERVRELIQKALRLAYEGNLEEAREVLREAEELARELNDESLERFLELLEKAIELHSSSSS
B2: il2ra_site1_3nfp_sap_15_mot_HHH_b1_01643_af2_000000062_0001_1_20_H_._HHH_b1_06862_0001_0000400010_0000001_0_0001_af2pred_0001_af2pred (protein)
chain: SSSSTELARRVDELIKLASEALQEGDKEEFKRILEELEEIAEEANDPAIRWAVEALRKAFSSSSS
B3: il2ra_site1_1z92_normal_mot_HHH_b1_02810_af2_000000169_0001_43_57_H_._HHH_b1_03082_af2_0001_0000300010_0000001_0_af2pred_0001_af2pred (protein)
chain: SSSSSEELEELLEEVKELLEQARENGDERLARELEFLLRVAEKQHNPRIARYAIEAARSFSSSSS
B4: il2ra_site2_3nfp_normal_mot_HHH_b1_07242_000000112_0001_19_39_H_._ems_3hM_250_0001_0000500009_0000001_0 (protein)
chain: SNEELERYIEAALRLAKEAARDPRIQEEIEEVLKEFEEAKEKNDEHALAEVAHLALELAELAARS
B5: il2ra_site2_2erj_normal_mot_HHH_b2_01204_af2_000000056_0001_19_34_H_._HHH_b2_02030_0001_0000300005_0000001_0 (protein)
chain: SSSSSDEEEVQELLERAEKSDDLREIYELLVRALHIASKTNNDELQRLITEVAERIARGSSSSSS
B6: il2ra_site2_2erj_normal_mot_HHH_b1_01239_000000175_0001_43_57_H_._HHH_b1_01477_0001_0000100001_0000001_0_1_af2pred_0001_af2pred (protein)
chain: SSSSSDREEVEEEVRELLEEAERIPDQREALKLLQKAARLAEEIGDPELHELVLEVARRLSSSSS
B7: il2ra_site2_2erj_normal_mot_43ff22814c79cc0f844b9f0307205ae1_0001_000000293_0001_18_33_H_._HHH_b1_01756_0001_0000900011_0000001_1 (protein)
chain: SSSSSSDIEEEVLELIAKAAHIKDEEEARKVLEEALEVAEEGNDPLLARFVELSLEDQSSSSSSS
B8: il2ra_site1_1z92_normal_mot_HHH_b2_05238_af2_000000252_0001_38_55_H_._HHH_b1_08154_af2_0001_0000200002_0000001_1 (protein)
chain: SSSSSEEEAAQILIQAAERAIKAGDKRSAERFIEFLERQVEDEGDEELEKIVEELKELLKSSSSS
B9: il2ra_site2_2erj_normal_mot_HHH_b2_04303_af2_000000294_0001_21_38_H_._HHH_b1_01657_0001_0000200007_0000001_0 (protein)
chain: SSSSDLEERIRELLEQIEELLERGNPEEAEKLVSEAFELAYEANDPRLAALVIELAHLIFSSSSS
B10: il2ra_site1_2b5i_normal_mot_HHH_b2_04910_000000118_0001_1_19_H_._HHH_b1_03439_af2_0001_0000500027_0000001_0_af2pred_dldesign_0_af2pred (protein)
chain: SSSSSATAEALKLFLEADKLYQAGKEEEAKKKLEEALKKARAGGSTALEKMIESALKQLELSSSS
B11: il2ra_site2_3nfp_normal_mot_HHH_b2_05281_000000198_0001_39_56_H_._HHH_b1_04885_0001_0000100005_0000001_0 (protein)
chain: SSSSSKEEIEELLEELRRLVEEGDEERFEELAALVTHLAFELRDPRLFFLVAELAYLFRQSSSSS
B12: il2ra_site1_1z92_sap_20_mot_HHH_b2_02761_000000226_0001_1_18_H_._HHH_b1_00430_af2_0001_0000400036_0000001_0_0001_af2pred_0001_af2pred_1 (protein)
chain: SSSSDEEREREVTRIVLEVAEEFHLNAREEAELFRLAYKLLKRGYSEEEIKEILQELAHKSSSSS
B13: il2ra_site2_3nfp_normal_mot_HHH_b2_01155_000000159_0001_38_52_H_._HHH_b2_07590_0001_0000200017_0000001_0 (protein)
chain: SSSSSEVEREVEELLKEAERLLEEGDPHRAFYLLAEAALLVWQNENEELRKLVEHLAERIYSSSS
B14: il2ra_site1_3nfp_normal_mot_HHH_b1_01976_000000194_0001_43_56_H_._HHH_b2_06271_0001_0000100001_0000001_0 (protein)
chain: SSSSSEEQEFLREVLEALEKLTKVDPEEARELLEEARRLAEELNDPRLRHDVEFYAKQVRSSSSS
B15: il2ra_site1_1z92_normal_mot_HHH_b2_04375_000000267_0001_42_56_H_._a7d4ab743ae57deeac5d741f7278d18b_0001_0001_0000200031_0000001_0_af2pred_0001_af2pred_1 (protein)
chain: SEEELEELAKELGVPPEEVEVVLRELRRAEELGIPPEKVLRALIRAAERSGNPKLAEVLQELLER
B16: il2ra_site1_1z92_normal_mot_HHH_b1_02362_af2_000000131_0001_1_17_H_._HHH_b1_08295_0001_0000100004_0000001_0 (protein)
chain: SSSDLEVLKRLDEFVLELAEEYGLDEEVARRLLHTVSKLFARGVSEEEIEKILEEIVEEYKSSSS
B17: il2ra_site2_2erj_normal_mot_HHH_b1_02534_000000050_0001_23_39_H_._HHH_b2_03380_0001_0000200004_0000001_0_af2pred_0001_af2pred (protein)
chain: SSSSSSEEDRERNARRALERARKIEDKEKVKELLRVAELAAESVNDEELEEEVREVAEELSSSSS
B18: il2ra_site2_2erj_sap_10_mot_HHH_b1_07182_000000298_0001_1_15_H_._HHH_b1_06428_af2_0001_0000200003_0000001_0_0001 (protein)
chain: SSSSSLKELYELANRLLHALSNGDEELFEELLEEAKKLAEELNSDTVKEMLERLERLLRDSSSSS
B19: il2ra_site2_3nfp_normal_mot_HHH_b1_00660_af2_000000090_0001_40_57_H_._HHH_b2_06895_0001_0000100004_0000001_0 (protein)
chain: SSSSDEEVRQLLERVEELLEEGDYEEARRLLSRAALLAYEAGDFELFARIQELRFLLLRLSSSSS
B20: il2ra_site2_2erj_normal_mot_HHH_b2_01204_af2_000000056_0001_19_34_H_._HHH_b2_02030_0001_0000500011_0000001_0 (protein)
chain: B5 chain with Q11E, E28K, R32E, R47E, E51Q
B21: il2ra_site1_1z92_normal_mot_30aa582283ecb64a35315be28fff3e94_0001_000000110_0001_35_49_H_._HHH_b2_06812_af2_0001_0000400063_0000001_0_af2pred_0001_af2pred_1 (protein)
chain: SSSSSLEKQAKKLVEDAVRLAGLSEEEKEQLEELAKELVEEGVDSIEIARILEEFVKRLLSSSSS
B22: il2ra_site2_2erj_normal_mot_HHH_b1_06571_000000096_0001_1_16_H_._HHH_b1_07788_0001_0000900011_0000001_0 (protein)
chain: SSSSDLEEELERLIEAALELVRRAGNPELAELVEELLERFKEEGDPRYAALAYKLLREAHSSSSS
B23: il2ra_site2_3nfp_sap_13_mot_HHH_b2_07186_000000286_0001_42_55_H_._HHH_b1_01394_0001_0000300011_0000001_0_0001 (protein)
chain: SDEVAQIMEELSKRNDPVAFLVYLIARLAFERNDPELQKLAREVLQIAKKNPEEAKELAEEILER
B24: il2ra_site2_2erj_sap_26_mot_46479c6699afdbd8d5d5faf00326b0b9_0001_1_af2_000000112_0001_34_47_H_._HHH_b2_02360_af2_0001_0000400012_0000001_0_0001 (protein)
chain: SSSSSDEEELWEEVAEAVAKAAHIPDEEEVERLLEEAERLARELGNETLQRYVELAKEHASSSSS

target: il2ra, P01589; assay: yeast display titration

Apparent Kd, inactive:
B1 no binding seen
B2 no binding seen
B3 no binding seen
B4 no binding seen
B5 no binding seen
B6 no binding seen
B7 no binding seen
B8 no binding seen
B9 no binding seen
B10 no binding seen
B11 no binding seen
B12 no binding seen
B13 no binding seen
B14 no binding seen
B15 no binding seen
B16 no binding seen
B17 no binding seen
B18 no binding seen
B19 no binding seen
B20 no binding seen
B21 no binding seen
B22 no binding seen
B23 no binding seen
B24 no binding seen

Reprinted at random: 2 records from the list, in no set order.
Apparent Kd, inactive:
B5 no binding seen
B2 no binding seen
